# Reference: PubChem BioAssay AID1259354 (Paczesny and Yang Labs, IUPUI and University of Michigan, 2018)
# Protein sequences, listed by entry. Tags and fused reporters are not part of them. Lines headed by an entry give the natural chain unless they say otherwise; changes in a name come on top.
# UniProt Q01638: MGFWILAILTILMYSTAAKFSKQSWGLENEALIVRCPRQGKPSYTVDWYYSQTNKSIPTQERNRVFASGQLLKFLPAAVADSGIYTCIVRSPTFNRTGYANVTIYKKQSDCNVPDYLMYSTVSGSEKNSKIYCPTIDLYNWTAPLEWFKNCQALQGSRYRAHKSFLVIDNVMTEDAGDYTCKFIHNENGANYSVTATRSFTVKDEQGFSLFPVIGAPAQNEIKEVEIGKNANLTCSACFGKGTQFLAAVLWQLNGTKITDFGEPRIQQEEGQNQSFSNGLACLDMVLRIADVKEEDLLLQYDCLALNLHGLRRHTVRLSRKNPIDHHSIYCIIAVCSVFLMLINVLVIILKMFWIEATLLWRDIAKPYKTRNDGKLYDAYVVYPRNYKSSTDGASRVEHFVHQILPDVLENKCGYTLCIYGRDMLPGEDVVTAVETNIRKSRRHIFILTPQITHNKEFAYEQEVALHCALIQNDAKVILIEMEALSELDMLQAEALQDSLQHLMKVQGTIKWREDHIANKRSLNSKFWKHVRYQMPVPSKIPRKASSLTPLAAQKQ
# Among all 78,000 compounds or so, about 1,800 (2.3%) were called active. The shares of active, inactive and inconclusive entries below differ from those in the screen. Rule as the data show it: active = inhibition above about 30%; inconclusive = mostly about 10% to 28%; inactive = weaker than that. More than one record can exist for a structure, and the calls need not agree.
# Target: Interleukin-1 receptor-like 1 (Homo sapiens) (UniProt Q01638)
# Assay: blocks human ST2 binding to IL-33, primary screen, biochemical, AlphaLISA (AID 1259354)
# Conditions: AlphaLISA ST2-Fc/biotin-IL-33 interaction, 1 h; at 17 µM, hits give high values
row,SMILES,inhibition
1,O=C(CCCOc1ccc(Cl)cc1Cl)N1CCOCC1,inactive
2,COc1ccc2c(c1)OC13CCN(C)CC1C2C(C(=O)c1ccc(F)cc1)C(=O)N3 (centres undefined),inconclusive: 11%
3,O=C(NCc1ccco1)C1(N2CCCCC2)Cc2ccccc2C1,inconclusive: 25%
4,CN(C)c1ccc(CNC(=O)CN2C(=O)c3cccnc3Sc3ccccc32)cc1,inconclusive: 12%
5,CC(=O)Nc1ccc(C(=O)Nc2cccc([N+](=O)[O-])c2)cc1,inactive
6,O=C1CCCN2N=C(SCc3cccc(F)c3)SC2=N1,inconclusive: 12%
7,CCCNC(=O)c1ccc(N2CCCC(c3nn(C)c(=O)n3CC)C2)nc1 (centres undefined),inconclusive: 10%
8,N#C/C(=C\c1ccc(OCc2c(F)cccc2Cl)cc1)c1nn(CCO)c(N)c1C#N,inconclusive: 12%
9,COc1ccc(-n2c(=O)[nH]cc(C(=O)Nc3ccc(OC)c(OC)c3)c2=O)cc1,inconclusive: 10%
10,COc1cccc([C@@H]2C[C@H](NC(C)=O)C[C@H](Cc3ccccc3)O2)c1F,inactive
11,Cc1cc(N2[C@@H]3CC[C@H]2CC(O)C3)nc(N2CCOCC2)n1 (some centres undefined),inconclusive: 22%
12,COc1ccc(NC2CCCN(C(=O)c3cn(CCCN)nn3)C2)cc1 (centres undefined),inconclusive: 20%
13,CCSc1nc(CC(=O)N(Cc2nccn2C)C2CC2)cs1,inconclusive: 28%
14,Cc1cccnc1CN(C)Cc1ccc(Cl)cc1F,inconclusive: 16%
15,Cc1cc([N+](=O)[O-])nn1CCCC(=O)Nc1cc(Oc2ccc(F)cc2)cc([N+](=O)[O-])c1,inconclusive: 16%
16,Cc1ccc(C)c(OCC(O)CN2CCN(c3ccccc3F)CC2)c1 (centres undefined),inconclusive: 15%
17,CCOc1ccc(/C=C2/OC(=O)c3c2cc(C)[nH]c3=O)cc1,inconclusive: 19%
18,CCOC(=O)c1sc(=NC(=O)c2ccc(OC)c(OC)c2)n(C)c1C,inconclusive: 22%
19,Cc1ccc(-n2ncc3c(=O)n(CC(=O)Nc4cc(C)on4)cnc32)cc1,inactive
20,CNC(=O)[C@@H]1C[C@H](N)CN1C(=O)c1cc2ccccc2cn1,inconclusive: 19%
21,CCC(=O)N1CCc2cc(S(=O)(=O)NC(C(=O)NCc3ccco3)C(C)C)ccc21 (centres undefined),inactive
22,c1cncc(-c2nc3c(c(NCCc4c[nH]c5ccccc45)n2)CCNC3)c1,inconclusive: 15%
23,COc1ccc(Cn2c(CNC(=O)c3ccccc3OC)nc3cccnc32)cc1,inconclusive: 11%
24,Cc1ccc(C(=O)Nc2cccc(I)c2)cc1C,inactive

# Part of the list above, with tabs:
row	SMILES	inhibition
4	CN(C)c1ccc(CNC(=O)CN2C(=O)c3cccnc3Sc3ccccc32)cc1	inconclusive: 12%
13	CCSc1nc(CC(=O)N(Cc2nccn2C)C2CC2)cs1	inconclusive: 28%
18	CCOC(=O)c1sc(=NC(=O)c2ccc(OC)c(OC)c2)n(C)c1C	inconclusive: 22%

# 3 structures out of the list, sorted by count of non-hydrogen atoms, rising:
row,SMILES,inhibition
14,Cc1cccnc1CN(C)Cc1ccc(Cl)cc1F,inconclusive: 16%
9,COc1ccc(-n2c(=O)[nH]cc(C(=O)Nc3ccc(OC)c(OC)c3)c2=O)cc1,inconclusive: 10%
23,COc1ccc(Cn2c(CNC(=O)c3ccccc3OC)nc3cccnc32)cc1,inconclusive: 11%

# Additional structures:

row,SMILES,inhibition
1,N=C1SCCN1CC(=O)c1ccc(Br)cc1,active: 48%
2,c1ccc(-c2nc3cnccn3c2NC2CCCC2)cc1,inactive
3,Cc1ccc(C)c(CNC(=O)C(C)(C)NC(=O)c2cccs2)c1,inactive
4,CC(=O)Nc1c2c3c(cccc3n(C)c1=O)C(=O)c1ccccc1-2,inconclusive: 18%
5,COC[C@H]1CCCN1[C@@H]1[C@H](O)[C@H](CO)O[C@@H]1CNC(=O)c1cccc(F)c1,inconclusive: 13%
6,CCC1Oc2ccccc2N(CC(=O)NCCCN2CCc3ccccc3C2)C1=O (centres undefined),inconclusive: 10%
7,O=[N+]([O-])c1cc2c(cc1CN1CCN(c3cccc(Cl)c3)CC1)OCO2,active: 36%
8,CC(CNC(=O)c1cn(C2CCCCCC2)nn1)Oc1cccnc1 (centres undefined),inactive
9,Nc1c(C(=O)Nc2ccccc2)sc2nc3c(cc12)CCCC3,inconclusive: 13%
10,COCCn1c(=O)[nH]c2cc(C(=O)NC3CCCC3)ccc2c1=O,inactive
11,Cc1ccc(-c2nc(S(=O)(=O)c3ccc(F)cc3)c(SCC(N)=O)o2)cc1,inconclusive: 12%
12,COc1ccc(C2CC(=O)N3CN(c4ccc(OC)cc4OC)CSC3=C2C#N)cc1 (centres undefined),inconclusive: 11%
13,COc1ccc(OC)c(/C=C(\C#N)c2nn(CCO)c(N=Cc3ccc(C)cc3)c2C#N)c1,inconclusive: 15%
14,COc1cccc(-n2cc(CN(C)CC3CCCC3)cn2)c1,inconclusive: 20%
15,COc1ccc(-c2nccn2CC(C)Oc2cccnc2)c(F)c1F (centres undefined),inactive
16,CN1CC2(CCCN(Cc3cccc4c3OC(F)(F)O4)CC2)OC1=O (centres undefined),inconclusive: 17%
17,c1cnc(-c2cc(NCc3cccnc3)nc3[nH]ccc23)nc1,active: 35%
18,O=C1OC(c2ccccc2)=C/C1=C/c1ccc(F)cc1,inconclusive: 13%
19,O=C(O)c1cc(C2=CCCCC2)cc(S(=O)(=O)NCC2CCCO2)c1 (centres undefined),inconclusive: 19%
20,CCOc1cc(C(=O)Nc2cccc(N3CCCS3(=O)=O)c2)cc(OCC)c1OCC,inconclusive: 17%
21,Cc1oc(C(C)C)cc1C(=O)N1CCN(C)C2(CCN(C)CC2)C1,inactive
22,COc1ccc(C(=O)N2C[C@@H]3C[C@H](C2)c2c(NC(=O)c4ccccc4)ccc(=O)n2C3)cc1,inconclusive: 21%
23,Cn1cnnc1CC1CCN(C(=O)c2cccc(Cn3cccn3)c2)CC1,inconclusive: 18%
24,O=C1c2ccccc2C(=O)N1CN(Cc1ccccc1)Cc1ccccc1,inactive

row,SMILES,inhibition
1,O=C(O)c1cccc(N=Cc2nc(-c3ccc(Cl)cc3)oc2O)c1,inconclusive: 14%
2,O=C(O)c1ccc(-c2ccc(Cl)cc2)o1,inconclusive: 11%
3,COc1ccc(OCC(O)Cn2c(N3CCOCC3)nc3c2c(=O)[nH]c(=O)n3C)cc1 (centres undefined),inactive
4,O=C(NCc1ccc2c(c1)OCO2)C1CCN(S(=O)(=O)N2CCCC2)CC1,inconclusive: 10%
5,O=C1Nc2ccccc2S/C1=C\C(=O)N1CCN(c2cccc(Cl)c2)CC1,inconclusive: 12%
6,COc1ccc2nc3sc(C(=O)N(C)Cc4ccccc4)cc3cc2c1,inactive
7,Cc1cc2nc(Cc3ccc(F)cc3)c(=O)[nH]c2cc1C,inconclusive: 17%
8,COc1cc(C)ccc1OCCOc1ccc([N+](=O)[O-])cc1Cl,inconclusive: 16%
9,O=C(c1ccc(Cn2cccn2)o1)N1CC[C@H](CO)[C@H](O)C1,inactive
10,Cc1ccsc1CN(C)Cc1ccc(C(=O)Nc2cnn(C)c2)cc1,inconclusive: 12%
11,COC(CN=CC1=C(O)CC(C)(C)CC1=O)OC,inconclusive: 12%
12,Cc1cc(=O)oc2cc(OCc3ccccc3F)c(Cl)cc12,inconclusive: 16%
13,COc1cccc(-c2nnc(Nc3nc4ccc(OC)cc4s3)o2)c1,inactive
14,CC(C)C(=O)N[C@H]1C[C@@H](C(=O)NCCCN2CCCC2=O)N(C)C1,inconclusive: 15%
15,Cc1cc(C(C)(C)C)c(O)c(C)c1CC1=NCCN1,inconclusive: 15%
16,CCN1C(=O)NC(=O)/C(=C\c2cn(CC(=O)N3CCC(C)CC3)c3ccccc23)C1=O,inconclusive: 13%
17,CCOc1cc(/C=C2/SC(=O)NC2=O)ccc1Oc1ccc([N+](=O)[O-])cc1[N+](=O)[O-],inconclusive: 18%
18,CCNC(=O)c1cn(CCc2ccccc2)cc(C(=O)NCC2OCCc3ccccc32)c1=O (centres undefined),inconclusive: 10%
19,Cc1ccc(C(N)=O)cc1S(=O)(=O)N1CCCCC1,inactive
20,O=C(C1CCCO1)N1CCN(Cc2cn[nH]c2-c2ccc(F)cc2)CC1 (centres undefined),inconclusive: 12%
21,Cc1c(Cl)c([N+](=O)[O-])nn1CCCC(=O)Nc1ccc(Cl)cc1,inactive
22,CCC(C)NC(=O)Cn1c(=O)n(Cc2ccc(C(=O)NC)cc2)c(=O)c2cc(OC)c(OC)cc21 (centres undefined),inactive
23,O=C(Nc1ccc(Br)cc1F)C1CSC(c2ccncc2)=N1 (centres undefined),inconclusive: 10%
24,CSc1ccc2c(c1)C(N1CCN(C)CC1)Cc1ccccc1S2 (centres undefined),inconclusive: 11%

row,SMILES,inhibition
1,CC(=O)Nc1ccsc1C(=O)N1CCCC2(CC1)CN(C)C(=O)O2 (centres undefined),inconclusive: 19%
2,Cc1cccc(OCC(=O)Nc2ccc3c(c2)OCO3)c1,inactive
3,C=CCc1ccccc1OCC(=O)O,inconclusive: 13%
4,Cc1ccc(-n2nc3c(c2NC(=O)c2ccccc2Br)CSC3)cc1,inactive
5,O=C(CCC(F)(F)F)N1CCC2(CCCN(CCCc3ccccc3)C2)C1 (centres undefined),inconclusive: 12%
6,O=C(Nc1c(Cl)cccc1Cl)c1ccc(F)cc1,inconclusive: 16%
7,CC(NS(C)(=O)=O)C(c1cccs1)N1CCOCC1 (centres undefined),inactive
8,O=C(CCc1nnc(Cc2c[nH]c3ccccc23)o1)N1CC=C(c2ccc(F)cc2)CC1,inconclusive: 11%
9,COc1ccc(OC)c(N2C(N)=C(C#N)C(c3ccc4c(c3)OCO4)C3=C2CC(C)(C)CC3=O)c1 (centres undefined),inconclusive: 10%
10,O=C(c1ccncc1)N(c1ccc2oc3c(c2c1)CCCC3)S(=O)(=O)c1cccc([N+](=O)[O-])c1,inconclusive: 22%
11,COc1ccc(OC)c(C2CC(=O)N3CN(c4ccc(C)c(Cl)c4)CSC3=C2C#N)c1 (centres undefined),inconclusive: 17%
12,COc1ccc(OC)c(CNC(=O)[C@@H]2C[C@H](NC(=O)c3ccco3)CN2C)c1,inconclusive: 14%
13,O=C(Cn1c(=O)[nH]c2ccsc2c1=O)N1CCN(c2ccccc2)CC1,inactive
14,CC(C)C(=O)Nc1cccc(-c2ccn[nH]2)c1,inactive
15,CN1CCN(Cc2ccc(S(C)(=O)=O)cc2)CC1C(=O)O (centres undefined),inactive
16,c1ccc2nc3c(nc2c1)c1ccccc1n3CN1CCOCC1,inconclusive: 14%
17,COC(=O)c1ccc(-c2cccc(NC(C)=O)c2)c(C)c1,inconclusive: 26%
18,O=C(Nc1ccccc1F)c1c[nH]c(=O)n(-c2ccccc2)c1=O,inactive
19,COc1ccc(S(=O)(=O)N2CCN(c3nc(C)cc(N4CCOCC4)n3)CC2)cc1OC,inconclusive: 13%
20,O=C(Nc1cccc(Cl)c1)c1cc2c(=O)oc3ccccc3c2s1,inconclusive: 18%
21,COc1ccc(Nc2cc(C)nc(Nc3ccc(NC(=O)c4cccc(F)c4)cc3)n2)cc1,inconclusive: 28%
22,CCCCNC(=O)c1oc2ccc(S(=O)(=O)N3CCCC(C)C3)cc2c1C (centres undefined),inactive
